{"source": "patent EP4679096A1", "about": "“BIOMARKERS AND METHOD FOR ESTIMATING BRAIN NEURODEGENERATIVE CONDITION” (SHIMADZU CORPORATION, priority 2023, dated 2024)", "experiment": "Ng peptides in plasma by affinity purification (anti-Ng antibody beads) and MALDI-TOF MS; comparison of CN, MCI, AD_Aβ+ and nonAD_Aβ- groups", "parameters": "species or system human", "from_the_text": "At the National Center for Geriatrics and Gerontology, 161 plasma samples and clinical diagnostic information such as amyloid PET findings, FDG-PET findings, MRI findings and MMSE findings (Mini Mental State Examination) were acquired.\nThe subject is a case diagnosed with normal cognitive function (CN), mild cognitive impairment (MCI), Alzheimer's disease (AD), and dementia other than Alzheimer's disease (nonAD). A group of AD and nonAD was defined as a group of dementia.\nPiB-PET images of the brains of the subjects were acquired in order to determine whether AB accumulation in the brain was positive or negative. A subject in which the accumulation amount of PiB in the cerebral cortex was larger than or equal to the accumulation amount of PiB in the non-specific white matter by visual interpretation evaluation by a nuclear medicine specialist was determined to be positive. A subject who had only non-specific accumulation in the white matter and hardly accumulated in the cortex was determined to be negative. The PiB accumulation average value (SUVR: Standard Uptake Value Ratio) quantified the PiB accumulation in the cortex, and the accumulation ratio of the cerebrum was determined on the basis of the cerebellum. AD cases confirmed to be AB-positive in amyloid PET were defined as AD_Aβ+ (N = 39), and nonAD cases confirmed to be AB-negative in amyloid PET were defined as nonAD_Aβ- (N = 41).\nDMSO (dimethyl sulfoxide) was mixed with a first buffer solution (0.1% n-undecyl-8-D-maltoside (UDM), 800 mM GlcNAc, 100 mM Tris-HCl, 300 mM NaCl; pH 7.4) containing a surfactant to prepare DMSO at a DMSO concentration of 20 (v/v)%. Subsequently, Ng45-75 (SIL-Ng45-75) and Ng24-75 (SIL-Ng24-75) labeled with a stable isotope as an internal standard were mixed with the first buffer so as to be 50 pM, thereby preparing an internal standard containing buffer. Subsequently, 200 µL of human plasma was mixed with 200 µL of an internal standard containing buffer, and the mixture was allowed to stand on ice for 5 to 60 minutes. Thus, a plasma sample was prepared. In SIL-Ng45-75 and SIL-Ng24-75, the carbon atoms and nitrogen atoms of some amino acids of Pro, Val, and Ala are substituted with ^13C and ^15N, respectively.\nClone NG2 (manufactured by BioLegend, Inc.) of an anti-Ng antibody (IgG1) having 52-63 residues of human neurogranin (Ng) as an epitope was prepared. To 100 µg of an anti-Ng antibody, 5.5 mg of magnetic beads (Dynabeads M-270 Epoxy) were added in an immobilization buffer (0.1 M phosphate buffer containing 1.5 M ammonium sulfate; pH 7.4) at 37°C for 16 to 24 hours. Thus, antibody beads as an antibody-immobilizing carrier were produced.\nPlasma samples were mixed with the antibody beads and incubated at 4°C for 1 hour. The antibody beads were then washed once with 100 µL of the first wash buffer (0.05% UDM, 50 mM Tris-HCl, 150 mM NaCl; pH7.4) and once with 50 µL of 50 mM ammonium acetate buffer. Thereafter, the antibody beads were brought into contact with the first acidic solution (0.05% UDM, 50 mM glycine buffer; pH 2.8) to elute the Ng peptide into the first acidic solution. Accordingly, a first eluate containing the Ng peptide was obtained.\nThe first eluate was mixed with neutral buffer (0.1% UDM, 800 mM GlcNAc, 300 mM Tris-HCl, 300 mM NaCl; pH 7.4) to give a purified solution.\nPurification solution was mixed with antibody beads and incubated at 4°C for 1 h. The antibody beads were then washed twice with 50 µL of the second washing buffer (0.05% UDM, 50 mM Tris-HCl, 150 mM NaCl; pH 7.4), washed once with 50 µL of 50 mM ammonium acetate buffer, and washed once with 30 µL of water. Thereafter, the antibody beads were brought into contact with a second acidic solution (70% (v/v) acetonitrile aqueous solution containing 5 mM hydrochloric acid and 0.1 mM methionine, 50 nM BSA) to elute the Ng peptide into the second acidic solution. Accordingly, a second eluate containing the Ng peptide was obtained. […]", "key": {"[1]": {"conditions": "ratio of medians (times CN), Experimental Example 1 correction"}, "[2]": {"conditions": "result in words, plasma corrected NI"}}}
{"substance": "Ng7-55: neurogranin fragment peptide, No. 26 (NACSKPDDDILDIPLDDPGANAAAAKIQASFRGHMARKKIKSGERGRKG; UniProt Q92686 7-55, looked up, fragment)", "values": [{"measurement": "Median for each group AD", "setting": "plasma NI, corrected as in Experimental Example 1, AD_Aβ+ group per text", "result": 0.152}, {"measurement": "Median for each group MCI", "setting": "plasma NI, corrected as in Experimental Example 1, MCI group", "result": 0.126}, {"measurement": "Median for each group CN", "setting": "plasma NI, corrected with sum of 10 monovalent + 2 divalent Ng peptide ions (Ng50-75, Ng45-75 not corrected), CN group", "result": 0.137}, {"measurement": "Difference in median for each group CN vs MCI", "setting": "[1]", "result": 0.92}, {"measurement": "Difference in median for each group CN vs nonAD_Aβ -", "setting": "[1]", "result": 1.02}, {"measurement": "median values in the AD_Aβ+ group than in the CN group", "setting": "[2]", "result": "higher"}, {"measurement": "median values in the nonAD_Aβ- group than in the CN group", "setting": "[2]", "result": "higher"}]}
